# Results reported in PubChem BioAssay AID463183 (Sanford-Burnham Center for Chemical Genomics, 2010).
# The list shows a part of the results. These are further read-outs of the screen, such as a control signal, another cell line or another target. No call is given for them. Compounds called inactive in the main read-out are mostly missing here.
# Assay: blockers of oleate-driven lipid droplets in liver cells – imaging, AML12 mouse hepatocytes, single concentration, high-content, confirmation (AID 463183);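 further: cells counted after overnight compound exposure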
# Conditions: BODIPY lipid droplet imaging, measured here: cell count, cytotoxicity, at 5.2 µM, droplets induced with 100 µM oleic acid
row,Compound,cell count
1,C/C=C(/C)C(=O)O[C@@H]1[C@H](OC(=O)C=C(C)C)c2c(ccc3ccc(=O)oc23)OC1(C)C,1590 cells
2,CCCCOc1ccccc1C(=O)N(Cc1ccco1)C1CCS(=O)(=O)C1 (centres undefined),1580 cells
3,COc1ccc(NC(=O)COC(=O)/C=C/C(=O)OCC(=O)Nc2ccc(OC)c(Cl)c2)cc1Cl,1520 cells
4,Cc1ccccc1Cn1nc(C)c(NC(=O)C2c3ccccc3Oc3ccccc32)c1C,1670 cells
5,CCn1cc(CCCC(=O)NCc2ccccc2OC)c2ccccc21,1660 cells
6,Cc1occc1C(=O)N/N=C/c1ccc(OCc2ccccc2)cc1,1580 cells
7,NC(=O)CC(NC(=O)Cc1cccc2ccccc12)c1ccc(N2CCN(c3ccc(F)cc3)CC2)c([N+](=O)[O-])c1 (centres undefined),1600 cells
8,CCCCCCCCn1c(N2CCN(c3cccc(Cl)c3)CC2)nc2c1c(=O)[nH]c(=O)n2C,1660 cells
9,CCCOc1cccc(C(=O)NCCNC(=O)c2ccc(C)nc2)c1,1590 cells
10,CCCOc1ccc(-c2csc(NC(=O)CN3C(=O)CCC3=O)n2)cc1,1660 cells
11,CCOc1ccc(CCNC(=O)CCNS(=O)(=O)c2ccc(Br)cc2)cc1OCC,1640 cells
12,Cc1ccc(C)c(C(=O)N2CCN(c3ncccn3)CC2)c1,1500 cells
13,CCc1c(C#N)c(SCCC(=O)Nc2cccc(OC)c2)nc2c1C(=O)CC(C)(C)C2,1620 cells
14,COc1ccc(-n2c(=O)c3c4c(sc3n(CC(=O)Nc3cc(C)[nH]n3)c2=O)CCC4)c(OC)c1,1590 cells
15,Cc1ccc(N=Nc2ccc3ccccc3c2O)cc1,1620 cells
16,O=C(NC(=S)Nc1ccccn1)c1ccc(-c2ccccc2)cc1,1610 cells
17,CC(C)COc1cccc(-c2cc(C(=O)Nc3ccon3)c3ccccc3n2)c1,1640 cells
18,COc1ccc(C(=O)CSc2nnc(CC(=O)Nc3ccccc3OC)n2C)cc1,1630 cells
19,CCOc1ccc(CCNC(=O)COC(=O)c2cc(OC)c(OC)c(OC)c2)cc1OCC,1670 cells
20,CCN(CC)S(=O)(=O)c1ccc(S(=O)(=O)N(CC(=O)Nc2ccccc2)Cc2ccco2)cc1,1560 cells

# Structures listed so far containing four or more nitrogen atoms, in the order listed:
row,Compound,cell count
7,NC(=O)CC(NC(=O)Cc1cccc2ccccc12)c1ccc(N2CCN(c3ccc(F)cc3)CC2)c([N+](=O)[O-])c1 (centres undefined),1600 cells
8,CCCCCCCCn1c(N2CCN(c3cccc(Cl)c3)CC2)nc2c1c(=O)[nH]c(=O)n2C,1660 cells
12,Cc1ccc(C)c(C(=O)N2CCN(c3ncccn3)CC2)c1,1500 cells
14,COc1ccc(-n2c(=O)c3c4c(sc3n(CC(=O)Nc3cc(C)[nH]n3)c2=O)CCC4)c(OC)c1,1590 cells
18,COc1ccc(C(=O)CSc2nnc(CC(=O)Nc3ccccc3OC)n2C)cc1,1630 cells

# Next compounds

row,Compound,cell count
1,O=C(O)CCCC(=O)Nc1ccc(Br)cc1C(=O)O,1680 cells
2,O=[N+]([O-])c1cc(Cl)ccc1NCCNc1ncc(C(F)(F)F)cc1Cl,1510 cells
3,O=C(NCc1ccc(C(=O)O)cc1)OCc1ccccc1,1530 cells
4,Cc1cc(-n2cnnn2)cc(C)c1S(=O)(=O)NCCOc1ccccc1,1600 cells
5,CCCCCC(/C=N/Nc1ccc(S(=O)(=O)N2CCOCC2)cc1[N+](=O)[O-])=C\c1ccccc1,1700 cells
6,CCN(CC(=O)Nc1c(F)cccc1F)C(=O)CCCc1c[nH]c2ccccc12,1590 cells
7,COc1cc(NC(=O)c2cccs2)c(OC)cc1NC(=O)CCC(=O)Nc1ccc(C)cc1,1610 cells
8,Nc1nc(-c2ccc(Cl)cc2)c(N=Nc2ccc(S(=O)(=O)N3CCOCC3)cc2)s1,1550 cells
9,Cc1ccc(C(C(=O)NC2CCCCC2)N(C(=O)c2csnn2)C2CCCC2)o1 (centres undefined),1620 cells
10,COC(=O)[C@@H]1C[C@@]2(O)[C@H](O)[C@H](O)[C@H](O)C[C@H]2N1Cc1cc(F)ccc1F,1600 cells
11,COc1cc2ncnc(NCc3ccc(Cl)cc3)c2cc1OC,920 cells
12,CC(C)OC(=O)/C(=C/c1ccc2c(c1)c1ccccc1n2C)NC(=O)c1ccccc1,1670 cells
13,COc1ccc(C2(c3ccc(OC)cc3)NC(=O)N(CC(=O)Nc3cc(C)ccc3OC)C2=O)cc1,1670 cells
14,COc1ccc(CCNC(=O)CC(c2ccccc2)c2cc(C)ccc2O)cc1OC (centres undefined),1530 cells
15,CCCCCC(O)(c1ccc(OCC)cc1)C(CN1CCOCC1)c1ccccc1 (centres undefined),1530 cells
16,CCOc1ccc(CCNC(=O)C2CCN(S(=O)(=O)N3CCCCC3)CC2)cc1OCC,1610 cells
17,O=c1[nH]cnc2sc3c(c12)CCN(Cc1ccccc1)C3,1530 cells
18,Cc1ccc(NC(=O)CSc2nnc(C)c(=O)n2N)cc1Cl,1650 cells
19,COc1ccc(CCNC(=O)c2cc3c(F)cccc3s2)cc1OC,1560 cells
